These are yes or no findings as the source states them, for the method shown. Binding seen in cells or lysates may run through a third protein. Some results given as binding are weak or reduced against the parent protein; the word gives no strength.

Chains of the proteins cited; added tags and fusions are not shown.
UniProt P84022: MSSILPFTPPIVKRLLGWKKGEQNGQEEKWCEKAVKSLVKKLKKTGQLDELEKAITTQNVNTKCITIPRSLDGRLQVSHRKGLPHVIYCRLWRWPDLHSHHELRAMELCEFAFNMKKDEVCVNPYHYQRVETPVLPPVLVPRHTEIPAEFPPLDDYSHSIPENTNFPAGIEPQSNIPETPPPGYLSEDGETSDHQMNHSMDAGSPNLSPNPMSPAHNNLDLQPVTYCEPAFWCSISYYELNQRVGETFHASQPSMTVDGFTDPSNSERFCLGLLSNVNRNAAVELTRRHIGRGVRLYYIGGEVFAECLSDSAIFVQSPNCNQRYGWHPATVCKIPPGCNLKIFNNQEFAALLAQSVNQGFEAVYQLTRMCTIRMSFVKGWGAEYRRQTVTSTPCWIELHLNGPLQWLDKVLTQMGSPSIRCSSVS

Consider three molecules from article PMC5415763.

Assay in all cases: co-IP; coimmunoprecipitation assay; cells, precipitating antibodies and conditions not stated
Assay [1] concerns the target Smad3 (human (endogenous in human CRC cell lines)), P84022. Conditions: remark: other sources report otherwise.
For assay [2], the target named is Smad2 (human (endogenous in human CRC cell lines)) (UniProt Q15796).
Assay [3] deals with Smad3 (human (endogenous in human CRC cell lines)) (UniProt P84022).
For assay [4], the target named is T1, Sip1 (Smad-interacting protein 1) (human) (UniProt O60315).
T1 sequence: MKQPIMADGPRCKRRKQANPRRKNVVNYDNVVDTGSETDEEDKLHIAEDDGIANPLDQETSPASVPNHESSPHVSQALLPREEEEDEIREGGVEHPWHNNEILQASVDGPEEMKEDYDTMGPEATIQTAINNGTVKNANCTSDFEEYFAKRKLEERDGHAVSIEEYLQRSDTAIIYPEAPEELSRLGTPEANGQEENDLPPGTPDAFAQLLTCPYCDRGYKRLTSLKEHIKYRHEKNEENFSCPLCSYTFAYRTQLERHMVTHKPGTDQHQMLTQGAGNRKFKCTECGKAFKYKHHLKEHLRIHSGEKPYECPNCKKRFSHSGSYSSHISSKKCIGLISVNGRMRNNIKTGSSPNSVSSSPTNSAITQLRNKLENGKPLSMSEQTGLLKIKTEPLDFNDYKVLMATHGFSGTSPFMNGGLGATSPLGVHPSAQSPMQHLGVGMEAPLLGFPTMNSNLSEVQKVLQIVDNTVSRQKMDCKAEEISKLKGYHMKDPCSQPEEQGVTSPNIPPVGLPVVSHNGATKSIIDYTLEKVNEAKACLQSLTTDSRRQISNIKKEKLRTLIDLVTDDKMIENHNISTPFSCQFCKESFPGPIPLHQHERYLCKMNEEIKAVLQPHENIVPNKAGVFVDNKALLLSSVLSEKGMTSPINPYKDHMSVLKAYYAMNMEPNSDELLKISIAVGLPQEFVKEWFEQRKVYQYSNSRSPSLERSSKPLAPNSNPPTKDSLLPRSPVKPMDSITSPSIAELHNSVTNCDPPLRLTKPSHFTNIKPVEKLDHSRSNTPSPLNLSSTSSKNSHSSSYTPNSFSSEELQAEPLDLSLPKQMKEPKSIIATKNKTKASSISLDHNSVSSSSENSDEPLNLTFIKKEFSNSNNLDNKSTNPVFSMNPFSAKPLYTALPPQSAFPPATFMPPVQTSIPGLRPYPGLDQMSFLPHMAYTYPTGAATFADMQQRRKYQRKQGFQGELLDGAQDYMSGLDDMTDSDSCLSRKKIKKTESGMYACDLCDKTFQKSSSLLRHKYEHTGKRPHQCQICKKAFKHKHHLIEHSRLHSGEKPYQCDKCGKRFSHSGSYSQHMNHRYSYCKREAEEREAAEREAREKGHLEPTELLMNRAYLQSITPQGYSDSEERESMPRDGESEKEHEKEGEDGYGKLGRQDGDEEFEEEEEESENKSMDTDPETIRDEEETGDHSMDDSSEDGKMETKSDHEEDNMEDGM

B1: Smad2, Q15796 1-467 (protein)
chain: MSSILPFTPPVVKRLLGWKKSAGGSGGAGGGEQNGQEEKWCEKAVKSLVKKLKKTGRLDELEKAITTQNCNTKCVTIPSTCSEIWGLSTPNTIDQWDTTGLYSFSEQTRSLDGRLQVSHRKGLPHVIYCRLWRWPDLHSHHELKAIENCEYAFNLKKDEVCVNPYHYQRVETPVLPPVLVPRHTEILTELPPLDDYTHSIPENTNFPAGIEPQSNYIPETPPPGYISEDGETSDQQLNQSMDTGSPAELSPTTLSPVNHSLDLQPVTYSEPAFWCSIAYYELNQRVGETFHASQPSLTVDGFTDPSNSERFCLGLLSNVNRNATVEMTRRHIGRGVRLYYIGGEVFAECLSDSAIFVQSPNCNQRYGWHPATVCKIPPGCNLKIFNNQEFAALLAQSVNQGFEAVYQLTRMCTIRMSFVKGWGAEYRRQTVTSTPCWIELHLNGPLQWLDKVLTQMGSPSVRCSSMS
Take B1: in assay [1], the binding result was “binds”.

B2: Sip1 (Smad-interacting protein 1) (protein, UniProt O60315 1-1214)
chain: MKQPIMADGPRCKRRKQANPRRKNVVNYDNVVDTGSETDEEDKLHIAEDDGIANPLDQETSPASVPNHESSPHVSQALLPREEEEDEIREGGVEHPWHNNEILQASVDGPEEMKEDYDTMGPEATIQTAINNGTVKNANCTSDFEEYFAKRKLEERDGHAVSIEEYLQRSDTAIIYPEAPEELSRLGTPEANGQEENDLPPGTPDAFAQLLTCPYCDRGYKRLTSLKEHIKYRHEKNEENFSCPLCSYTFAYRTQLERHMVTHKPGTDQHQMLTQGAGNRKFKCTECGKAFKYKHHLKEHLRIHSGEKPYECPNCKKRFSHSGSYSSHISSKKCIGLISVNGRMRNNIKTGSSPNSVSSSPTNSAITQLRNKLENGKPLSMSEQTGLLKIKTEPLDFNDYKVLMATHGFSGTSPFMNGGLGATSPLGVHPSAQSPMQHLGVGMEAPLLGFPTMNSNLSEVQKVLQIVDNTVSRQKMDCKAEEISKLKGYHMKDPCSQPEEQGVTSPNIPPVGLPVVSHNGATKSIIDYTLEKVNEAKACLQSLTTDSRRQISNIKKEKLRTLIDLVTDDKMIENHNISTPFSCQFCKESFPGPIPLHQHERYLCKMNEEIKAVLQPHENIVPNKAGVFVDNKALLLSSVLSEKGMTSPINPYKDHMSVLKAYYAMNMEPNSDELLKISIAVGLPQEFVKEWFEQRKVYQYSNSRSPSLERSSKPLAPNSNPPTKDSLLPRSPVKPMDSITSPSIAELHNSVTNCDPPLRLTKPSHFTNIKPVEKLDHSRSNTPSPLNLSSTSSKNSHSSSYTPNSFSSEELQAEPLDLSLPKQMKEPKSIIATKNKTKASSISLDHNSVSSSSENSDEPLNLTFIKKEFSNSNNLDNKSTNPVFSMNPFSAKPLYTALPPQSAFPPATFMPPVQTSIPGLRPYPGLDQMSFLPHMAYTYPTGAATFADMQQRRKYQRKQGFQGELLDGAQDYMSGLDDMTDSDSCLSRKKIKKTESGMYACDLCDKTFQKSSSLLRHKYEHTGKRPHQCQICKKAFKHKHHLIEHSRLHSGEKPYQCDKCGKRFSHSGSYSQHMNHRYSYCKREAEEREAAEREAREKGHLEPTELLMNRAYLQSITPQGYSDSEERESMPRDGESEKEHEKEGEDGYGKLGRQDGDEEFEEEEEESENKSMDTDPETIRDEEETGDHSMDDSSEDGKMETKSDHEEDNMEDGM
B2: the binding entry in assay [2] and in assay [3] was “binds” in each case.

B3: Response gene to complement 32 (RGC32) (protein, UniProt Q9H4X1 1-137)
chain: MKPPAAQGSPAAAAAAAPALDSAAAEDLSDALCEFDAVLADFASPFHERHFHYEEHLERMKRRSSASVSDSSGFSDSESADSLYRNSFSFSDEKLNSPTDSTPALLSATVTPQKAKLGDTKELEAFIADLDKTLASM
Consider B3, for which the binding entry in assay [4], in assay [2] and in assay [3] was “binds” throughout.
